Test results as given in publication PMC3192040.
Residue numbers refer to the chain shown, from its start. These are yes or no findings as the source states them, for the method shown. In cells and extracts the contact can be indirect. Some binding calls cover weakened binding; strength is not graded here. Tags and fused reporters may be left off the sequences shown.

The chains behind the UniProt entries cited, without tags or fusion partners. Where a name states a change or a piece, a line headed by the entry shows the natural chain unless it says otherwise. A line that says so, or that is headed by a name, gives the form on record, which may keep a tag or linker.
HSV-tagged SP100A (P23497-2, form named): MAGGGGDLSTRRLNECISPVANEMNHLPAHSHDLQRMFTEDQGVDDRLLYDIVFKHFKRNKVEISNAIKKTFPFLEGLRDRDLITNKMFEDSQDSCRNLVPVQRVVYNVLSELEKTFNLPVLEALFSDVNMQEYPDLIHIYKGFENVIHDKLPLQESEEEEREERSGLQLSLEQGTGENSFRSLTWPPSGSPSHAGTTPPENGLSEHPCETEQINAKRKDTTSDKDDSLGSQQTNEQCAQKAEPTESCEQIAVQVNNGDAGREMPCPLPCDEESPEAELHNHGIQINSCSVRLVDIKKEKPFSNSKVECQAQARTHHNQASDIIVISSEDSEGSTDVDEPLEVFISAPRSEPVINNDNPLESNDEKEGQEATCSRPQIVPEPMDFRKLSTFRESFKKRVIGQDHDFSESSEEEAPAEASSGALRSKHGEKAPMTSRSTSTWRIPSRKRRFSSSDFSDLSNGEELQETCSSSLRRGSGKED

How the values were obtained:
[1] = molecular target: T1, V5-tagged FOXL2-KFULL (UniProt P58012); test: co-IP; SP100-HSV co-expressed with V5-tagged FOXL2-WT or KFULL; FOXL2 precipitated with anti-V5-conjugated affinity resin; blot with anti-HSV and anti-FOXL2
T1 sequence: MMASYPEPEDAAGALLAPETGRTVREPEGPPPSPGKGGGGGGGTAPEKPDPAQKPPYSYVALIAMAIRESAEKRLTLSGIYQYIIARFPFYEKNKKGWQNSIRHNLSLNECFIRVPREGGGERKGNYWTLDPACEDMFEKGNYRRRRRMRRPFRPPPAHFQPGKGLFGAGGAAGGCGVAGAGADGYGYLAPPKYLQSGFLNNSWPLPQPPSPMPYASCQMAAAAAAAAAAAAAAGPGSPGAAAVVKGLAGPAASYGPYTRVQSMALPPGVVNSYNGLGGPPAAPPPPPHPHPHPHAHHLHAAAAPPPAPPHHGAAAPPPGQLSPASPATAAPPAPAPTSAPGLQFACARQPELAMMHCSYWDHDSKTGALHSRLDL

[2] = molecular target: T2, V5-tagged FOXL2-WT (UniProt P58012); test: as above
T2 sequence: T1 sequence with R25K, R87K, R114K, R150K

HSV-tagged SP100A (from UniProt P23497-2 1-480)
binding [1]: binds | binding [2]: binds
